Measured values published in the supplement of paper PMC12819154, “High-throughput peptide-centric local stability assay extends protein–ligand identification to membrane proteins, tissues and bacteria” (Nature Structural & Molecular Biology, 2025).
The list shows a part of the results. Most entries show no effect beyond the scatter of the controls.

Amino acid sequences for entries named in this document (tags omitted). A change or cut given only in a name is not applied to a line headed by its entry.
UniProt O75821, whole entry: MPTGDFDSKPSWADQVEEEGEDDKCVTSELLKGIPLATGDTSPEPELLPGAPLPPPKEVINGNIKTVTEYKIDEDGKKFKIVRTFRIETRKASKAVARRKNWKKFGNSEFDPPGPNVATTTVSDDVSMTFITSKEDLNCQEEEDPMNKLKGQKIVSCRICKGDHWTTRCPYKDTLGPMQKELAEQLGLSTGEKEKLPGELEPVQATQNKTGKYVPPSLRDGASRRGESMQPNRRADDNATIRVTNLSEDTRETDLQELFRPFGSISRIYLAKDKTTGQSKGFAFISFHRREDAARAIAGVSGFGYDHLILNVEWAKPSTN
UniProt O94905: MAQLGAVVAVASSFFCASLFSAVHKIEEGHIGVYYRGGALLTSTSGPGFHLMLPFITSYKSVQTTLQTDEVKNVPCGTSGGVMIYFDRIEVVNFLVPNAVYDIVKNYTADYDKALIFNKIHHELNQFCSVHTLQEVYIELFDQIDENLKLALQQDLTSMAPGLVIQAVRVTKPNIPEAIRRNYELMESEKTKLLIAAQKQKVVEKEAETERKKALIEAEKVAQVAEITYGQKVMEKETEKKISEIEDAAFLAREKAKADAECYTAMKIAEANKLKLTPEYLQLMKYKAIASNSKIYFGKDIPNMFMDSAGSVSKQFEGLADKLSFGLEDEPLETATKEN
UniProt O95168, whole entry: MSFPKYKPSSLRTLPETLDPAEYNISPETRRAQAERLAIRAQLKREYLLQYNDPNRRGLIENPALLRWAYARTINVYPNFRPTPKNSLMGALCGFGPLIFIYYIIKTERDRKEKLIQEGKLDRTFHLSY
UniProt O95295: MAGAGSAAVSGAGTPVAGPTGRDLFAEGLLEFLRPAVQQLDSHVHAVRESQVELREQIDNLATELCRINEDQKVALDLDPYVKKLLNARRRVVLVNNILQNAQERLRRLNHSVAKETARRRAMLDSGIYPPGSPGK
UniProt O95562: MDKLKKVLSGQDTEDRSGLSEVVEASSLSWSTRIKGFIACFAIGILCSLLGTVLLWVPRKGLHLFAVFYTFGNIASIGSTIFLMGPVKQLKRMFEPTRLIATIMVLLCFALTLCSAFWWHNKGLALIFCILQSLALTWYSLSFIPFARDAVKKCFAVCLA
UniProt O95793: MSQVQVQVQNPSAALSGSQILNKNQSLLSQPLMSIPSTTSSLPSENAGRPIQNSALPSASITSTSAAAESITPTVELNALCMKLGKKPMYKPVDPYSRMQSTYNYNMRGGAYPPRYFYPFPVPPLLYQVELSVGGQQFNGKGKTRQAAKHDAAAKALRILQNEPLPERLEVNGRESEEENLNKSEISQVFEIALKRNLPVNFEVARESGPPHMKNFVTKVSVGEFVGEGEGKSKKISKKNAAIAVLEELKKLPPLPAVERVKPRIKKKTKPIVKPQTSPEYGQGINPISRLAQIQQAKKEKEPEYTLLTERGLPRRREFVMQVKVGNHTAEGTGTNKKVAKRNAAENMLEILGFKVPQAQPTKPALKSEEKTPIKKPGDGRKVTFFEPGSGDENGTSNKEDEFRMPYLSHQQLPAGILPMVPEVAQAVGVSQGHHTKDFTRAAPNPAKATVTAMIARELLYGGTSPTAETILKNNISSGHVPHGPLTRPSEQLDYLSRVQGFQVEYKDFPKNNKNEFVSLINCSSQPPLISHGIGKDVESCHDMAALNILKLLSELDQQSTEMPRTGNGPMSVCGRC
UniProt O95218: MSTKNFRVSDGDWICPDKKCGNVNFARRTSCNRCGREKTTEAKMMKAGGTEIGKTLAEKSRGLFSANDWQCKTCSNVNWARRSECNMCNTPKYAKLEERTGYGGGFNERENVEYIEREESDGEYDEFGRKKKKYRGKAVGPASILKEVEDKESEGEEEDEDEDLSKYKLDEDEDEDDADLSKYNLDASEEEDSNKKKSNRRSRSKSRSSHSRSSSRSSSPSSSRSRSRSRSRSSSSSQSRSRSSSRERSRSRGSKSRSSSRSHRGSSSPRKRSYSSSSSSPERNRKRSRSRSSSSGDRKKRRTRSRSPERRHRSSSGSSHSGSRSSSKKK
UniProt O96007: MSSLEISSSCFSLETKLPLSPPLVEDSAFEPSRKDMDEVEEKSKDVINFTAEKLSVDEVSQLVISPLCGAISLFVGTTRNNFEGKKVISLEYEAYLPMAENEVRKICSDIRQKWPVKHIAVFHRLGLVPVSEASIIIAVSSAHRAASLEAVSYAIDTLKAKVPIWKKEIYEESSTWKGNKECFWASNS
UniProt O95801: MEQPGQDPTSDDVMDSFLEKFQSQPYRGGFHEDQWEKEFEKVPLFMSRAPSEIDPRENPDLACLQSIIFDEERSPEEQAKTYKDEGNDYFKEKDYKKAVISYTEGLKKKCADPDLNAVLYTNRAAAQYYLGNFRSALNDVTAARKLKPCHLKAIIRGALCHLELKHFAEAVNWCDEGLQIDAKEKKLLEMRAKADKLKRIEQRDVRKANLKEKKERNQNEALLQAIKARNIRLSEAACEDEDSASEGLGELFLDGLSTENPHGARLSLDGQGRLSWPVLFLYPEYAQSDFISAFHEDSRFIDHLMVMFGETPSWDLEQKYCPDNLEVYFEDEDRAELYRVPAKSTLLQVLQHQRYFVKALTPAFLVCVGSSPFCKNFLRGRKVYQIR
UniProt O75822, whole entry: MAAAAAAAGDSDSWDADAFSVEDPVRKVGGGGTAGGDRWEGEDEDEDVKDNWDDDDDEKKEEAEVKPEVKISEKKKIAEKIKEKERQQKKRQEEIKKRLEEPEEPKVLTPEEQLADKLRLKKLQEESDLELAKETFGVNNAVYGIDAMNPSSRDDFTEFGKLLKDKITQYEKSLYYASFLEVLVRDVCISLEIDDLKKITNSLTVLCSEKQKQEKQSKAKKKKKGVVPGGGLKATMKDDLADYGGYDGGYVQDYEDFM
UniProt O75953: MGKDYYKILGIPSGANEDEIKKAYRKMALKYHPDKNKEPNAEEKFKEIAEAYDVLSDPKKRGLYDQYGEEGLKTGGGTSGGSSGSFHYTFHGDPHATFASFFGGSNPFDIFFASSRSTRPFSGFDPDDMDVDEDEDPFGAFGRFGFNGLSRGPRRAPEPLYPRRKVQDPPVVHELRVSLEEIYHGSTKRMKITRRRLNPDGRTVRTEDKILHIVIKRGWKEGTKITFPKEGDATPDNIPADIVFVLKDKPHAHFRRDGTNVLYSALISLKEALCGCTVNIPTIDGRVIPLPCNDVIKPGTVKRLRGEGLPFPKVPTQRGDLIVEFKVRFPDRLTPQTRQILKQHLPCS
UniProt O94992, whole entry: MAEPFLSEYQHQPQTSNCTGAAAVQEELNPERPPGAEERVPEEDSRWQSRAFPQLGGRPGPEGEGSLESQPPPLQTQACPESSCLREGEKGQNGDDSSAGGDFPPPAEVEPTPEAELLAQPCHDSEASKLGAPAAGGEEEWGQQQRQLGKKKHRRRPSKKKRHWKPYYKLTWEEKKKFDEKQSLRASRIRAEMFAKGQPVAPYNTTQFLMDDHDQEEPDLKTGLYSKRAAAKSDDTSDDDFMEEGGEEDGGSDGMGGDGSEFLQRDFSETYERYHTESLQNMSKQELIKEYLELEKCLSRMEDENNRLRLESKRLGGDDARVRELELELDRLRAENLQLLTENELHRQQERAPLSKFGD
UniProt O95365: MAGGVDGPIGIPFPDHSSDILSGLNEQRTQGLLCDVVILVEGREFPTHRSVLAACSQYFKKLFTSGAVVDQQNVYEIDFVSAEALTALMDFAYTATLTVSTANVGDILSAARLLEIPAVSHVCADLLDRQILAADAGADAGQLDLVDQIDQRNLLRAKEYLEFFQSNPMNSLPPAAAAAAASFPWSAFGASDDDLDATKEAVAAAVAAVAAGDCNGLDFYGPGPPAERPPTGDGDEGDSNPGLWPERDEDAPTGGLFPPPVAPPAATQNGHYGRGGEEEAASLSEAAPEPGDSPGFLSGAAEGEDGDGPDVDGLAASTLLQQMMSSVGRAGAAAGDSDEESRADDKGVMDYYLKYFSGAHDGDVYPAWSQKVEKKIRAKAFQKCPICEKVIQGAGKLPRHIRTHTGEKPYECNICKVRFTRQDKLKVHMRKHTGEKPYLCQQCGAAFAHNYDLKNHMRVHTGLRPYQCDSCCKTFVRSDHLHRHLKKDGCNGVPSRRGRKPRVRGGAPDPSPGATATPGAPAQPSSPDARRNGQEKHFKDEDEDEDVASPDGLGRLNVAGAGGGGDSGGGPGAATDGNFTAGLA
UniProt O94927: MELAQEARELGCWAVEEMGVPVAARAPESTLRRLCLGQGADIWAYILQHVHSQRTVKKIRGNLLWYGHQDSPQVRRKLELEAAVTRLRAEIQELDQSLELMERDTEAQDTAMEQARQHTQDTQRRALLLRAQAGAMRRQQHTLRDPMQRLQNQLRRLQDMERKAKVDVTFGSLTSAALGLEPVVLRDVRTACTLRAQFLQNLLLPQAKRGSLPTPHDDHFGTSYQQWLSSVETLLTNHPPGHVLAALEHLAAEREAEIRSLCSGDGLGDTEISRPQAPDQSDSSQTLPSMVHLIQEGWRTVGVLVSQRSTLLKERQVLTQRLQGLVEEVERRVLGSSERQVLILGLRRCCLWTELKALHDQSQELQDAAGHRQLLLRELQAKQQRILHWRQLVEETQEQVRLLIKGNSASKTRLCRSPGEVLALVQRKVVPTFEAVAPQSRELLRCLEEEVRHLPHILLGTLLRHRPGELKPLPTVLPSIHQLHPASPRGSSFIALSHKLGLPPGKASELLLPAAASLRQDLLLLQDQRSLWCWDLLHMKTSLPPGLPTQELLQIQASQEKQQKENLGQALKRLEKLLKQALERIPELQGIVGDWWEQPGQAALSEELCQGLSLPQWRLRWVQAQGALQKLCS
UniProt O75648: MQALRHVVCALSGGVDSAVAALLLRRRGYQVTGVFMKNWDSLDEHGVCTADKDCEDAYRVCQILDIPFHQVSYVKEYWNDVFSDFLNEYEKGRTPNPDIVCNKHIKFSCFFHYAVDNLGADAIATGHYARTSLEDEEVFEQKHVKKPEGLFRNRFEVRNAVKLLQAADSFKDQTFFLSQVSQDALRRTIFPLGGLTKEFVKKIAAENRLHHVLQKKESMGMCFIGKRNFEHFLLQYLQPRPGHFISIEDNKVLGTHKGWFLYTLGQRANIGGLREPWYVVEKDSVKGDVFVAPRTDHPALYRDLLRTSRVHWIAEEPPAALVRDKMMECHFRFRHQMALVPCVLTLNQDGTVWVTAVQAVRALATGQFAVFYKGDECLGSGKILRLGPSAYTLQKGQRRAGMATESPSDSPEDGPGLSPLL
UniProt O75533, whole entry: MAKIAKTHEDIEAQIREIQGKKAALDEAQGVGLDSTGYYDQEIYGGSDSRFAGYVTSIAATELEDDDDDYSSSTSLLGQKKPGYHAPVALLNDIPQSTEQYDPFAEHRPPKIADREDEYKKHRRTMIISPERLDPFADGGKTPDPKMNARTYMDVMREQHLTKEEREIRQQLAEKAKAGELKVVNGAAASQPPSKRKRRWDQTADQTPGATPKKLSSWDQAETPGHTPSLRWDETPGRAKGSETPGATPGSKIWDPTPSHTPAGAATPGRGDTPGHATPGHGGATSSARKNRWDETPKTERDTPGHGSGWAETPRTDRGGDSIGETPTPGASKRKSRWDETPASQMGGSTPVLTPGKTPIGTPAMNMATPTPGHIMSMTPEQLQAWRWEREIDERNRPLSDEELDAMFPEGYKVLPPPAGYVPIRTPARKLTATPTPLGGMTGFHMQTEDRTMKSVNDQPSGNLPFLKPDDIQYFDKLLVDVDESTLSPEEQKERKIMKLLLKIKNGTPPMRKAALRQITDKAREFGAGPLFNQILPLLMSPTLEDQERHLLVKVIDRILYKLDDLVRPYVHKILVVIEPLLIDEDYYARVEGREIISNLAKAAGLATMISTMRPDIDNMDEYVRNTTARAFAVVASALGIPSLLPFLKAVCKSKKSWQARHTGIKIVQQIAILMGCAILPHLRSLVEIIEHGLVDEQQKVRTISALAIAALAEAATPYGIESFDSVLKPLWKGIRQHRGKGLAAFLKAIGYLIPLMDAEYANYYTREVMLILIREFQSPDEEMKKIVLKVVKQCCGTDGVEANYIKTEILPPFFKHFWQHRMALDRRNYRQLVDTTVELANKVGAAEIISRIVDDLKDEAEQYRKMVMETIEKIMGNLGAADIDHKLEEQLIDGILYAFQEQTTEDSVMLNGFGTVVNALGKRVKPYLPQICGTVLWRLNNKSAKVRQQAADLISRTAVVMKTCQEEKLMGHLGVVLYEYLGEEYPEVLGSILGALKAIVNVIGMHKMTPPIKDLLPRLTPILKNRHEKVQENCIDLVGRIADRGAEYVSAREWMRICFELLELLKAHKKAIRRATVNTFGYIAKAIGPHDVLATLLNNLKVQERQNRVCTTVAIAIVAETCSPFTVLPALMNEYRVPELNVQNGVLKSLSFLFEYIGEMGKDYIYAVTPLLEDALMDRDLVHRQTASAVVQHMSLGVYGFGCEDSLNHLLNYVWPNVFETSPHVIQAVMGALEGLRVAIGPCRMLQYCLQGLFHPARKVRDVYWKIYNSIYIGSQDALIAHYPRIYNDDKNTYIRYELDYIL
UniProt O76070, whole entry: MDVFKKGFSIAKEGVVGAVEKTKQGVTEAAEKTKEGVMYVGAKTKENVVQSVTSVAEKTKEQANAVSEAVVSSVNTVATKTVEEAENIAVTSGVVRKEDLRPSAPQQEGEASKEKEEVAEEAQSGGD

compound: CN[C@@H]1C[C@H]2O[C@@](C)([C@@H]1OC)n1c3ccccc3c3c4c(c5c6ccccc6n2c5c31)C(=O)NC4 [staurosporine]; assay: log2 fold change of tryptic peptide abundance, ligand vs vehicle (limited proteolysis) (log2 ratio); higher = more trypsin-susceptible (destabilized); details: ligand concentration: 20 uM; sample: K562 cleared lysate; digestion: 4 min, 22 C (HT-PELSA RT4min, Orbitrap Astral)

| Target | log2 fold change |
| --- | --- |
| EIF3G (peptide sequence: IVSCRICK, peptide start residue: 154) (UniProt O75821) | 0.674 |
| UniProt O95935 (peptide sequence: YSTSLAETYNR, peptide start residue: 430) | 0.0853 |
| PPM1B (peptide sequence: NGQVCFSTQDHKPCNPR, peptide start residue: 159) (UniProt O75688) | 0.536 |
| ERLIN2 (peptide sequence: LTPEYLQLMK, peptide start residue: 276) (UniProt O94905) | 0.118 |
| NDUFB4 (peptide sequence: TINVYPNFRPTPK, peptide start residue: 73) (UniProt O95168) | 0.362 |
| CCNK (peptide sequence: AAEPPPPKIPK, peptide start residue: 347) (UniProt O75909) | -0.104 |
| SNAPIN (peptide sequence: RLNHSVAK, peptide start residue: 108) (UniProt O95295) | 0.553 |
| CEP152 (peptide sequence: LIQQLEKEWQSK, peptide start residue: 765) (UniProt O94986) | -0.153 |
| SFT2D2 (peptide sequence: KVLSGQDTEDR, peptide start residue: 6) (UniProt O95562) | 0.158 |
| TACC1 (peptide sequence: DGHATDEEK, peptide start residue: 500) (UniProt O75410) | 1.03 |
| C6orf47 (peptide sequence: WDHVDSGGTR, peptide start residue: 117) (UniProt O95873) | 0.115 |
| STAU1 (peptide sequence: MQSTYNYNMR, peptide start residue: 99) (UniProt O95793) | 0.357 |
| ZRANB2 (peptide sequence: RSECNMCNTPK, peptide start residue: 82) (UniProt O95218) | -0.19 |
| MOCS2 (peptide sequence: EIYEESSTWK, peptide start residue: 168) (UniProt O96007) | -0.0993 |
| UniProt O95232 (peptide sequence: WDHESVCK, peptide start residue: 29) | 0.276 |
| SLU7 (peptide sequence: KGACENCGAMTHKK, peptide start residue: 117) (UniProt O95391) | 1.16 |
| PTTG1 (peptide sequence: ATLIYVDKENGEPGTR, peptide start residue: 2) (UniProt O95997) | -0.0954 |
| UniProt O95267 (peptide sequence: LIDTTQINAR, peptide start residue: 168) | 0.0212 |

Quoted from the entries so far for reference:

| Target | log2 fold change |
| --- | --- |
| TACC1 (peptide sequence: DGHATDEEK, peptide start residue: 500) (UniProt O75410) | 1.03 |
| C6orf47 (peptide sequence: WDHVDSGGTR, peptide start residue: 117) (UniProt O95873) | 0.115 |

The list goes on:

| Target | log2 fold change |
| --- | --- |
| TTC4 (peptide sequence: GGFHEDQWEKEFEK, peptide start residue: 28) (UniProt O95801) | -0.526 |
| EIF3J (peptide sequence: RLEEPEEPKVLTPEEQLADK, peptide start residue: 98) (UniProt O75822) | 0.993 |
| GGPS1 (peptide sequence: ILLEPYK, peptide start residue: 11) (UniProt O95749) | -0.165 |
| UniProt O75953 (peptide sequence: FGFNGLSR, peptide start residue: 144) | 0.0664 |
| BCL10 (peptide sequence: SNSDESNFSEK, peptide start residue: 136) (UniProt O95999) | -0.123 |
| HEXIM1 (peptide sequence: EYLELEKCLSR, peptide start residue: 290) (UniProt O94992) | -0.212 |
| ZBTB7A (peptide sequence: DGCNGVPSR, peptide start residue: 488) (UniProt O95365) | -0.263 |
| NDUFB10 (peptide sequence: AFDLIVDRPVTLVR, peptide start residue: 30) (UniProt O96000) | -0.183 |
| UniProt O94927 (peptide sequence: ELGCWAVEEMGVPVAAR, peptide start residue: 9) | 0.315 |
| WDR47 (peptide sequence: LTHDASNIHTSTPR, peptide start residue: 531) (UniProt O94967) | -0.262 |
| TRMU (peptide sequence: VHWIAEEPPAALVR, peptide start residue: 310) (UniProt O75648) | -0.612 |
| SF3B1 (peptide sequence: AIVNVIGMHK, peptide start residue: 999) (UniProt O75533) | 0.191 |
| CRCP (peptide sequence: HSSGQQNLNTITYETLK, peptide start residue: 35) (UniProt O75575) | -0.271 |
| FRYL (peptide sequence: QIPVHPVPDPLVHEVLNLAFK, peptide start residue: 137) (UniProt O94915) | -0.787 |
| SEC31A (peptide sequence: YLELLGYRK, peptide start residue: 489) (UniProt O94979) | 0.776 |
| STAM2 (peptide sequence: KSEPEPVYIDEDKMDR, peptide start residue: 284) (UniProt O75886) | 0.312 |
| SNCG (peptide sequence: TKEGVMYVGAK, peptide start residue: 33) (UniProt O76070) | -0.224 |
| MLYCD (peptide sequence: ADLLEAQALK, peptide start residue: 159) (UniProt O95822) | -0.0106 |
